Test results: patent publication US20250304918A1
No constants are given. Whether binding was seen depends on the method and setting. Some entries that bind do so weakly or less than the wild type.

Sequences of proteins named here, by UniProt entry; tags and fusion partners are left off. A change or cut given only in a name is not applied to a line headed by its entry.
UniProt Q06432: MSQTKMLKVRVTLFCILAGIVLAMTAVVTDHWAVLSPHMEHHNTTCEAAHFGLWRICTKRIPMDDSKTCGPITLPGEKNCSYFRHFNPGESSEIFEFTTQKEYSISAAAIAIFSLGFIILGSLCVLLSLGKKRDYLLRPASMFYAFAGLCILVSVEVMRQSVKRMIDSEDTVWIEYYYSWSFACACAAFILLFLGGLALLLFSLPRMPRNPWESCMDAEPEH
UniProt O70578: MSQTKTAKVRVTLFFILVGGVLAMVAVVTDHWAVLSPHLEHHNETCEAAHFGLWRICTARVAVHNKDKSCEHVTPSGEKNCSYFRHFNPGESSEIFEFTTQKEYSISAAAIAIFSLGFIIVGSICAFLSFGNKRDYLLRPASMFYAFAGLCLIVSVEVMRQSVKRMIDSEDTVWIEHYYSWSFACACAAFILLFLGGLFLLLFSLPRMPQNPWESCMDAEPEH

What was measured:
[1] = biological target: human CACNG1 (Calcium Voltage-Gaged Auxiliary Subunit Gamma 1) (human) (UniProt Q06432); experiment: no binding assay described; definition of the label
mouse CACNG1 (mouse) [2] = biological target: mouse CACNG1 (mouse) (UniProt O70578); experiment: as above
[3] = biological target: human CACNG1 (Calcium Voltage-Gaged Auxiliary Subunit Gamma 1) (human) (UniProt Q06432); experiment: no binding assay described; descriptor in figure legend
mouse CACNG1 (mouse) [4] = biological target: mouse CACNG1 (mouse) (UniProt O70578); experiment: as above

Measured: binding

B1: CACNG1 mAb #4 (antibody, V domains shown)
VH: QVQLQESGPGLVKPSETLSLTCTVSGDSINNYYWTWLRQPPGKGLEWIGYIYYSGSANYNPSLKSRVTISVDTSKNQFSLKLNSVTAADTAVYYCARGAVKYFRHWGQGTLVTVSS
VL: EIVLTQSPGTLSLSPGERATLSCRASQTINHNNLAWYQQRPGQAPRLLIYGASNRATAIPDRFSGSGSGTDFTLTISRLEPEDFEVYSCQQYGSLPLTFGGGTKVEIK
binds: [1] | mouse CACNG1 (mouse) [2]

B2: CACNG1 mAb #2 (antibody, V domains shown)
VH: QVQLQQWGAGLLKPSATLSRTCAVYGGSFSGYYWNWIRQSPGKGLEWIGEILHSGRTNYNPSLKSRVTISVDTSKNQFSLKLTSVTAADTAVYYCAGRIAARHGWFDPWGQGTLVTVSS
VL: DIQMTQSPSSVSTSVGDRVTISCRASQDIRKWLAWYQQKPGKAPKLLIYATSSLQSGVPSRFSGSGSGTDFTLTISSLQPEDFATYFCQQANSFPFTFGQGTKLEIK
binds: all assays above
